# Measurements from the supplement of paper PMC8426693.
# The list shows a part of the results. Repeats are few or missing, and single values can be far off.
# Assays:
# Experiment in all cases: 1H chemical shift perturbation upon RNA addition; higher = stronger binding
# Settings in all cases: RNA concentration 10 µM; fragment concentration 200 µM; 293 K
# SARS-CoV-2 3'-UTR RNA = system: SARS-CoV-2 3'-UTR RNA
# SARS-CoV-2 3_SL3base RNA = system: SARS-CoV-2 3_SL3base RNA
# SARS-CoV-2 3_SL2 RNA = system: SARS-CoV-2 3_SL2 RNA
# SARS-CoV-2 5'-UTR RNA = system: SARS-CoV-2 5'-UTR RNA
# SARS-CoV-2 5_SL1 RNA = system: SARS-CoV-2 5_SL1 RNA
# SARS-CoV-2 5_SL1234 RNA = system: SARS-CoV-2 5_SL1234 RNA
# SARS-CoV-2 5_SL4 RNA = system: SARS-CoV-2 5_SL4 RNA
# SARS-CoV-2 3_SL1+2 RNA = system: SARS-CoV-2 3_SL1+2 RNA
# SARS-CoV-2 3_s2m RNA = system: SARS-CoV-2 3_s2m RNA
compound,measurement,setting,value
CCc1nc(-c2ccc(Cl)cc2)no1,1H chemical shift perturbation upon RNA addition,SARS-CoV-2 3'-UTR RNA,12 Hz
COc1ccc(NC(=O)Nc2cccs2)cn1,1H chemical shift perturbation upon RNA addition,SARS-CoV-2 3'-UTR RNA,3 Hz
Cc1ccc(-c2noc(CNC(C)C)n2)cc1,1H chemical shift perturbation upon RNA addition,SARS-CoV-2 3'-UTR RNA,8 Hz
same,1H chemical shift perturbation upon RNA addition,SARS-CoV-2 3_SL3base RNA,15 Hz
COc1ccc(Nc2ncnc3[nH]cnc23)cc1,1H chemical shift perturbation upon RNA addition,SARS-CoV-2 3'-UTR RNA,9 Hz
same,1H chemical shift perturbation upon RNA addition,SARS-CoV-2 3_SL3base RNA,8 Hz
Nc1nccc(-c2ccc(Cl)cc2)n1,1H chemical shift perturbation upon RNA addition,SARS-CoV-2 3'-UTR RNA,18 Hz
same,1H chemical shift perturbation upon RNA addition,SARS-CoV-2 3_SL2 RNA,8 Hz
same,1H chemical shift perturbation upon RNA addition,SARS-CoV-2 3_SL3base RNA,16 Hz
same,1H chemical shift perturbation upon RNA addition,SARS-CoV-2 5'-UTR RNA,14 Hz
CC(C)NC(=O)c1ccc2ccccc2n1,1H chemical shift perturbation upon RNA addition,SARS-CoV-2 3'-UTR RNA,7 Hz
CC(C)c1ccc(C(=O)Nc2nncs2)cc1,1H chemical shift perturbation upon RNA addition,SARS-CoV-2 3'-UTR RNA,8 Hz
Cc1cc2ncn(CC(N)=O)c2cc1C,1H chemical shift perturbation upon RNA addition,SARS-CoV-2 3'-UTR RNA,4 Hz
c1cc(-c2ccc3c(c2)OCO3)n[nH]1,1H chemical shift perturbation upon RNA addition,SARS-CoV-2 3'-UTR RNA,6 Hz
same,1H chemical shift perturbation upon RNA addition,SARS-CoV-2 3_SL3base RNA,7 Hz
same,1H chemical shift perturbation upon RNA addition,SARS-CoV-2 5'-UTR RNA,6 Hz
CNC(=O)Nc1nc2ccc(OC)cc2s1,1H chemical shift perturbation upon RNA addition,SARS-CoV-2 5_SL1 RNA,8 Hz
same,1H chemical shift perturbation upon RNA addition,SARS-CoV-2 5_SL1234 RNA,8 Hz
same,1H chemical shift perturbation upon RNA addition,SARS-CoV-2 5_SL4 RNA,4 Hz
c1coc(CNc2nc3ccccc3[nH]2)c1,1H chemical shift perturbation upon RNA addition,SARS-CoV-2 3_SL1+2 RNA,4 Hz
same,1H chemical shift perturbation upon RNA addition,SARS-CoV-2 3_SL3base RNA,9 Hz
same,1H chemical shift perturbation upon RNA addition,SARS-CoV-2 5'-UTR RNA,7 Hz
CCCc1nnc(NC(=O)c2ccccn2)s1,1H chemical shift perturbation upon RNA addition,SARS-CoV-2 5'-UTR RNA,6 Hz
O=C(Nc1ccc2[nH]c(=O)[nH]c2c1)c1ccco1,1H chemical shift perturbation upon RNA addition,SARS-CoV-2 3'-UTR RNA,8 Hz
same,1H chemical shift perturbation upon RNA addition,SARS-CoV-2 3_SL3base RNA,8 Hz
same,1H chemical shift perturbation upon RNA addition,SARS-CoV-2 5'-UTR RNA,5 Hz
Cc1occc1C(=O)Nc1ccncc1,1H chemical shift perturbation upon RNA addition,SARS-CoV-2 3'-UTR RNA,1 Hz
same,1H chemical shift perturbation upon RNA addition,SARS-CoV-2 3_SL3base RNA,15 Hz
same,1H chemical shift perturbation upon RNA addition,SARS-CoV-2 5'-UTR RNA,9 Hz
same,1H chemical shift perturbation upon RNA addition,SARS-CoV-2 5_SL1 RNA,24 Hz
COc1ccc(NC(=O)CN)cc1,1H chemical shift perturbation upon RNA addition,SARS-CoV-2 5'-UTR RNA,5 Hz
O=C(Nc1ccon1)c1cccc(Cl)c1,1H chemical shift perturbation upon RNA addition,SARS-CoV-2 3'-UTR RNA,8 Hz
same,1H chemical shift perturbation upon RNA addition,SARS-CoV-2 3_SL3base RNA,9 Hz
same,1H chemical shift perturbation upon RNA addition,SARS-CoV-2 5'-UTR RNA,3 Hz
COc1ccc2sc(N)nc2c1,1H chemical shift perturbation upon RNA addition,SARS-CoV-2 3'-UTR RNA,8 Hz
same,1H chemical shift perturbation upon RNA addition,SARS-CoV-2 3_SL3base RNA,9 Hz
same,1H chemical shift perturbation upon RNA addition,SARS-CoV-2 5'-UTR RNA,8 Hz
CC(N)c1ccc(-c2cncnc2)cc1 (configuration not stated),1H chemical shift perturbation upon RNA addition,SARS-CoV-2 3'-UTR RNA,9 Hz
same,1H chemical shift perturbation upon RNA addition,SARS-CoV-2 5'-UTR RNA,19 Hz
Cc1cccc(NC(=O)Nc2nc(C)cs2)c1,1H chemical shift perturbation upon RNA addition,SARS-CoV-2 3_SL3base RNA,13 Hz
same,1H chemical shift perturbation upon RNA addition,SARS-CoV-2 3_s2m RNA,6 Hz
same,1H chemical shift perturbation upon RNA addition,SARS-CoV-2 5_SL1234 RNA,11 Hz
same,1H chemical shift perturbation upon RNA addition,SARS-CoV-2 5_SL4 RNA,6 Hz
CNCc1cnn(-c2ccccc2)c1,1H chemical shift perturbation upon RNA addition,SARS-CoV-2 5'-UTR RNA,10 Hz
O=C(NO)c1ccc2ccccc2n1,1H chemical shift perturbation upon RNA addition,SARS-CoV-2 5'-UTR RNA,9 Hz
O=C(OCc1ccc(Cl)cc1)c1cccnc1,1H chemical shift perturbation upon RNA addition,SARS-CoV-2 3'-UTR RNA,7 Hz
same,1H chemical shift perturbation upon RNA addition,SARS-CoV-2 5'-UTR RNA,3 Hz
CNC(=O)c1ccccc1NC(=O)c1ccco1,1H chemical shift perturbation upon RNA addition,SARS-CoV-2 3'-UTR RNA,7 Hz
same,1H chemical shift perturbation upon RNA addition,SARS-CoV-2 3_SL3base RNA,10 Hz
same,1H chemical shift perturbation upon RNA addition,SARS-CoV-2 5'-UTR RNA,7 Hz
CN(C)c1ccc(C(=O)Nc2ccncc2)cc1,1H chemical shift perturbation upon RNA addition,SARS-CoV-2 5_SL1234 RNA,12 Hz
same,1H chemical shift perturbation upon RNA addition,SARS-CoV-2 5_SL4 RNA,12 Hz
OCc1ccc(-n2cnc3ccccc32)cc1,1H chemical shift perturbation upon RNA addition,SARS-CoV-2 3'-UTR RNA,1 Hz
same,1H chemical shift perturbation upon RNA addition,SARS-CoV-2 5'-UTR RNA,2 Hz
O=C(Nc1ccccn1)c1cnccn1,1H chemical shift perturbation upon RNA addition,SARS-CoV-2 5'-UTR RNA,4 Hz
Cc1ccccc1OCC(=O)Nc1ncccn1,1H chemical shift perturbation upon RNA addition,SARS-CoV-2 5'-UTR RNA,1 Hz
Cc1c(Cl)cccc1NC(=O)CN.Cl,1H chemical shift perturbation upon RNA addition,SARS-CoV-2 5'-UTR RNA,10 Hz
COc1ccc2[nH]cc(CN(C)C)c2c1,1H chemical shift perturbation upon RNA addition,SARS-CoV-2 5'-UTR RNA,18 Hz
Cl.NCc1cc(-c2ccccc2)no1,1H chemical shift perturbation upon RNA addition,SARS-CoV-2 3'-UTR RNA,10 Hz
same,1H chemical shift perturbation upon RNA addition,SARS-CoV-2 3_s2m RNA,9 Hz
same,1H chemical shift perturbation upon RNA addition,SARS-CoV-2 5'-UTR RNA,33 Hz
Cc1cc(N2CCNCC2)nc(C)n1,1H chemical shift perturbation upon RNA addition,SARS-CoV-2 5'-UTR RNA,4 Hz

# An excerpt of these results, bar-delimited.
compound | measurement | setting | value
Cc1ccc(-c2noc(CNC(C)C)n2)cc1 | 1H chemical shift perturbation upon RNA addition | SARS-CoV-2 3_SL3base RNA | 15 Hz
c1coc(CNc2nc3ccccc3[nH]2)c1 | 1H chemical shift perturbation upon RNA addition | SARS-CoV-2 5'-UTR RNA | 7 Hz
Cc1occc1C(=O)Nc1ccncc1 | 1H chemical shift perturbation upon RNA addition | SARS-CoV-2 5'-UTR RNA | 9 Hz
Cc1ccccc1OCC(=O)Nc1ncccn1 | 1H chemical shift perturbation upon RNA addition | SARS-CoV-2 5'-UTR RNA | 1 Hz
